Source: publication doi:10.1101/2025.06.21.660898
Like-named read-outs stand apart in the source and are kept apart here. These are yes or no findings as the source states them, for the method shown. In cells and extracts the contact can be indirect. Some binding calls cover weakened binding; strength is not graded here. Sequences can lack the tags named with a protein.

The chains behind the UniProt entries cited, without tags or fusion partners.
UniProt O15372: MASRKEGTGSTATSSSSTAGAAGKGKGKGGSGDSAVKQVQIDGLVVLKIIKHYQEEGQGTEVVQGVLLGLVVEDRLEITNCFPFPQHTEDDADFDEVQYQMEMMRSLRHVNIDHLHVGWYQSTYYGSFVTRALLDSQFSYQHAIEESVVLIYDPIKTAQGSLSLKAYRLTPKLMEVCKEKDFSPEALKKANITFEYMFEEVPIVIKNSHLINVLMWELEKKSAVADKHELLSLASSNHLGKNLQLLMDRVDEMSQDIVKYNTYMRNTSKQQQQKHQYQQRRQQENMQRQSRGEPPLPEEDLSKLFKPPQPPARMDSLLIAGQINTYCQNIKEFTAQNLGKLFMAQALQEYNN

T1: FH-full-length ZCCHC4 (HA and Flag tagged), overexpressed in HEK 293T cells (human) (UniProt Q9H5U6)
T1 sequence: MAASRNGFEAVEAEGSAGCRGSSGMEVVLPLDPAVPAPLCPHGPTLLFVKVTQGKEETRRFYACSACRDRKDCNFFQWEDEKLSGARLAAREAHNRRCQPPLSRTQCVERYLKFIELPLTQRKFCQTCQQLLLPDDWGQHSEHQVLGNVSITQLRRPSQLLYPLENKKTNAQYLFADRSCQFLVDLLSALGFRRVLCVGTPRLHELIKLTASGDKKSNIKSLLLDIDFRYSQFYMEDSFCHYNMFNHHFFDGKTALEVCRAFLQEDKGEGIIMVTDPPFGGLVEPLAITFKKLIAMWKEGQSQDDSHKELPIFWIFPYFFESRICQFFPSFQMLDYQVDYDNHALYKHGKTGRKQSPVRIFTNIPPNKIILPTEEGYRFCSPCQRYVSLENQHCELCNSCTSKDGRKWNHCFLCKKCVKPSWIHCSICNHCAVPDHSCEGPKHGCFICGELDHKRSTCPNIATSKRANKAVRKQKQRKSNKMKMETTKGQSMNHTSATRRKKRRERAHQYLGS

T2: ZCCHC4-FH (HA and Flag tagged full-length ZCCHC4), stably expressed in HeLa cells (human) (UniProt Q9H5U6)
T2 sequence: T1 sequence

B1: PDCD4 (protein, UniProt Q53EL6 1-469)
chain: MDVENEQILNVNPADPDNLSDSLFSGDEENAGTEEIKNEINGNWISASSINEARINAKAKRRLRKNSSRDSGRGDSVSDSGSDALRSGLTVPTSPKGRLLDRRSRSGKGRGLPKKGGAGGKGVWGTPGQVYDVEEVDVKDPNYDDDQENCVYETVVLPLDERAFEKTLTPIIQEYFEHGDTNEVAEMLRDLNLGEMKSGVPVLAVSLALEGKASHREMTSKLLSDLCGTVMSTTDVEKSFDKLLKDLPELALDTPRAPQLVGQFIARAVGDGILCNTYIDSYKGTVDCVQARAALDKATVLLSMSKGGKRKDSVWGSGGGQQSVNHLVKEIDMLLKEYLLSGDISEAEHCLKELEVPHFHHELVYEAIIMVLESTGESTFKMILDLLKSLWKSSTITVDQMKRGYERIYNEIPDINLDVPHSYSVLERFVEECFQAGIISKQLRDLCPSRGRKRFVSEGDGGRLKPESY

Experiments:
Test in all cases: co-IP
[1] = molecular target: T1, FH-full-length ZCCHC4 (HA and Flag tagged), overexpressed in HEK 293T cells (human)
[2] = molecular target: T2, ZCCHC4-FH (HA and Flag tagged full-length ZCCHC4), stably expressed in HeLa cells (human)
[3] = molecular target: T1, FH-full-length ZCCHC4 (HA and Flag tagged), overexpressed in HEK 293T cells (human); remark: listed apart in the source
[4] = molecular target: T2, ZCCHC4-FH (HA and Flag tagged full-length ZCCHC4), stably expressed in HeLa cells (human); remark: listed apart in the source

Molecule	binding [1]	binding [2]	binding [3]	binding [4]
eIF3H, a core subunit of the eIF3 complex (from UniProt O15372 1-352)	binds	binds		
B1			binds	binds
